PubChem BioAssay (EPA / NIEHS)
Where “and” joins values, the source holds several entries; their conditions need not be identical. Equal values may be shown once. This list was built around the results that the source calls inconclusive (neither active nor inactive); the mix of calls is not that of the screen. For part of these data: A potency beside an inconclusive call is a rough fit, not a confirmed value. Some compounds were tested as several samples or in several runs, with calls that do not always agree. Calls of active or inactive are those of the source. The calls were made as follows: active = hit-call score of the fitted dose curve at least 0.9, where 1 is the maximum; inconclusive = response in the unintended direction; inactive = score below 0.9.

Chains of the proteins cited; added tags and fusions are not shown. Lines headed by an entry give the natural chain unless they say otherwise; changes in a name come on top.
UniProt P04386, whole entry, looked up: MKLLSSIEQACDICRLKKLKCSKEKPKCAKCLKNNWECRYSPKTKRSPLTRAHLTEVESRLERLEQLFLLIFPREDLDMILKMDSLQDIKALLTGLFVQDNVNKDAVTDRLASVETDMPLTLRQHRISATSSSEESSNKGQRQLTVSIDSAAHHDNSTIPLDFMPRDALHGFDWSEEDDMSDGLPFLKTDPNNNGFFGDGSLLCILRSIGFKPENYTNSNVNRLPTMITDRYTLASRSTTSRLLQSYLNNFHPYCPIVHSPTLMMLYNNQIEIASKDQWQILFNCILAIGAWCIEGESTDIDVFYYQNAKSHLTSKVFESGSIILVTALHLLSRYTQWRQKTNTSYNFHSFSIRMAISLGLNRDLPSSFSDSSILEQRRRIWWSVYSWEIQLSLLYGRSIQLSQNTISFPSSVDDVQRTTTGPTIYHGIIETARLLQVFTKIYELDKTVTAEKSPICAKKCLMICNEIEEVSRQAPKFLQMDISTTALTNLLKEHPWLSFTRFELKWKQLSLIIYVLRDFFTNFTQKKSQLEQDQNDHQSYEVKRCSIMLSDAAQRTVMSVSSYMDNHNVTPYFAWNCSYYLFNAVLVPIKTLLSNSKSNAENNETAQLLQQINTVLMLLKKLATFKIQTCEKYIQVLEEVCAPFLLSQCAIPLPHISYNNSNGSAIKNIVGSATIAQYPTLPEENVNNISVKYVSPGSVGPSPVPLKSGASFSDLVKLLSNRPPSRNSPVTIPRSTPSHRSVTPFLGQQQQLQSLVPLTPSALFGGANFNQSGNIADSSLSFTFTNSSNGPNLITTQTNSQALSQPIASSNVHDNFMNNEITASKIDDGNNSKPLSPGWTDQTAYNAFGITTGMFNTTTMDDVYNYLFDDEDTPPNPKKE
UniProt P10275: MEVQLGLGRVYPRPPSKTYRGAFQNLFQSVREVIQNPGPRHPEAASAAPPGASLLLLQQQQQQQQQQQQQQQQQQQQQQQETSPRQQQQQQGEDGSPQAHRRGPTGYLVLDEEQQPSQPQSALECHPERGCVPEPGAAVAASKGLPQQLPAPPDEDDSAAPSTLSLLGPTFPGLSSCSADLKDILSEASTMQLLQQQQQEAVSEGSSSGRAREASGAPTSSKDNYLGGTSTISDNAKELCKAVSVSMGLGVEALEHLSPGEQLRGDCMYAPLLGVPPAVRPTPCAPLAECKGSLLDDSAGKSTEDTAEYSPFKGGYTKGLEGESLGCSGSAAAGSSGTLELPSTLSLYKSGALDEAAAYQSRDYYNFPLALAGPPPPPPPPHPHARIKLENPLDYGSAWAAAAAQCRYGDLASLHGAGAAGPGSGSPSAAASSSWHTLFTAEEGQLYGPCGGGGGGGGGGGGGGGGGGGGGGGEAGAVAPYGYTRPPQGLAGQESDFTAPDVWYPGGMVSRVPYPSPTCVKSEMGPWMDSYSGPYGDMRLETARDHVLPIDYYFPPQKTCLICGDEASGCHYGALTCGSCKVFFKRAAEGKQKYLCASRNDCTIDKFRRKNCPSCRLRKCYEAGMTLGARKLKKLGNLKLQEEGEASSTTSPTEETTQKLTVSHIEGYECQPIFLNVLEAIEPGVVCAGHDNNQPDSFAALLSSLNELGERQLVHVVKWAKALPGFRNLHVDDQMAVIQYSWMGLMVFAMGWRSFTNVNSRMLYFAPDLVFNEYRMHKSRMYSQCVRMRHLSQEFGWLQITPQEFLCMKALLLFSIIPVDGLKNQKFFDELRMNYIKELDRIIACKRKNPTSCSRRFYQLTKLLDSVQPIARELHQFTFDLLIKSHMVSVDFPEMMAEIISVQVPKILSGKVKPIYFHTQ
UniProt Q98867: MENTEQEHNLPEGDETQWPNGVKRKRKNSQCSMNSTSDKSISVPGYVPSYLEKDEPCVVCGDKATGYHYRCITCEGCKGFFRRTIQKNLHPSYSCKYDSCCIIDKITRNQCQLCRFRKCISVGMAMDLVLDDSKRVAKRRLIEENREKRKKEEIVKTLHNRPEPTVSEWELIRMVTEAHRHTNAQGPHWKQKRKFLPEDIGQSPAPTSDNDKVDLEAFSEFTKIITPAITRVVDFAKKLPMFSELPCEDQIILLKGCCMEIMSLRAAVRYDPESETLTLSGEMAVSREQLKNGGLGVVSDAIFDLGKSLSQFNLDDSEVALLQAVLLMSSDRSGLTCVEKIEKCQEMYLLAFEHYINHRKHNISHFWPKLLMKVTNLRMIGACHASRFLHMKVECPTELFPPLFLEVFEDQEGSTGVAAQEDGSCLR
UniProt P57717: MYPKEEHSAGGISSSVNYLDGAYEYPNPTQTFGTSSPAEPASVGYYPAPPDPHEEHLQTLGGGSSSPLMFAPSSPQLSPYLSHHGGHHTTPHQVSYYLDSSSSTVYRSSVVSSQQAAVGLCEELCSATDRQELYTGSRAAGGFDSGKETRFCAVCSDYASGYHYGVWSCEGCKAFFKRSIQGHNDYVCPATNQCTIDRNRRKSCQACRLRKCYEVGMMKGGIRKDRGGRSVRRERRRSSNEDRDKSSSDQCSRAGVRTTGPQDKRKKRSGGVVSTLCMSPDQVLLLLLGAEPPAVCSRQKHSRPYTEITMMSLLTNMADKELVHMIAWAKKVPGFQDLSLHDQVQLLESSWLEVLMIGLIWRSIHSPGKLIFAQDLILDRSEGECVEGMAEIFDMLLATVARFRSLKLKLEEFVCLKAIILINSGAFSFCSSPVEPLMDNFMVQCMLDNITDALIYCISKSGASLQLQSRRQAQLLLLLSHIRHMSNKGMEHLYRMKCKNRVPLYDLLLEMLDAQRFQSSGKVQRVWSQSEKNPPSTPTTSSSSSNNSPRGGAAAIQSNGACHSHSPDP
UniProt P06212, whole entry, looked up: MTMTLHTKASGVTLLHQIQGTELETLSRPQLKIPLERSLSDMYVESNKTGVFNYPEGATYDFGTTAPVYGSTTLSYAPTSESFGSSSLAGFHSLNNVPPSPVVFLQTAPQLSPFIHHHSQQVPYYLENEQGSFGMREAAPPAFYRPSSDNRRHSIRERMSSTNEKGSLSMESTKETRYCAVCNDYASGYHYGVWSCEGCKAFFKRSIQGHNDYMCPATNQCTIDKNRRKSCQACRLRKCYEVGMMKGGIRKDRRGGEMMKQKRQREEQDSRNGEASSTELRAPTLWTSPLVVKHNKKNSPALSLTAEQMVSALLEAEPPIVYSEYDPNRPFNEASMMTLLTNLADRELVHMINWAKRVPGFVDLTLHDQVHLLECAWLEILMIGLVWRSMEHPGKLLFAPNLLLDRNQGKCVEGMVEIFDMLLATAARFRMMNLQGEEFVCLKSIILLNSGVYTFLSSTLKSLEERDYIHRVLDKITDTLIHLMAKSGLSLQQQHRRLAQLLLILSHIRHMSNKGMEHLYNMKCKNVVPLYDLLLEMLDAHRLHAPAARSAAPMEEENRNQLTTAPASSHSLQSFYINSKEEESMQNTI
UniProt Q9PVE4: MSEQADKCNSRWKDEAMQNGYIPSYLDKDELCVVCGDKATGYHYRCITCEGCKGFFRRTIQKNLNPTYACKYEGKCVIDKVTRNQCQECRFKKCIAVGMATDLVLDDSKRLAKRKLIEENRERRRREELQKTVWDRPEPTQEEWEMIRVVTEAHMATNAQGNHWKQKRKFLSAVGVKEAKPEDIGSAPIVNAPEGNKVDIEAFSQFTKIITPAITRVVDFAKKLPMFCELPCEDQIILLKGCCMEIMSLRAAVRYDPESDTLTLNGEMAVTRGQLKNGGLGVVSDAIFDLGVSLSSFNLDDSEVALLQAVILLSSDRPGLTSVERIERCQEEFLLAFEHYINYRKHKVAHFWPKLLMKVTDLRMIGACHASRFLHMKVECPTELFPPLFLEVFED

Legend:
[1] = molecular target: GAL4 Transcription Factor (Internal Marker), GAL4 (gene 855828) (UniProt P04386); test: ATG_GAL4_XSP2: Attagene TRANS-FACTORIAL Multi-Species (XSP2) HepG2 Assay for GAL4 Transcription Factor (Internal Marker) (AID 2283814);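 also: GAL4 reporter mRNA background control in MRTU transfected cells not a receptor target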
Summary of the method: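 Background-control readout: gain-of-signal fitted against DMSO. After 24 h exposure of transfected HepG2 (MRTU, GAL4-UAS reporters; 3 nM 6-alpha-fluorotestosterone, 1.5 nM norgestrel present), transcripts quantified by RT-PCR and capillary electrophoresis fluorescence.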

[2] = tested on: chicken Androgen Receptor (AR), gene 422165; test: ATG_chAR_XSP2: Attagene TRANS-FACTORIAL Multi-Species (XSP2) HepG2 Assay for chicken Androgen Receptor (AR) (AID 2283819);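 also: hits raise reporter mRNA above DMSO so potency is for activation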
Summary of the method: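 Readout is reporter mRNA induction via RT-PCR/capillary electrophoresis after 24 h chemical exposure, positive direction relative to DMSO. Transiently transfected HepG2 express chimeric chicken AR–GAL4; AR stimulated by 3 nM 6-alpha-fluorotestosterone and 1.5 nM norgestrel.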

[3] = molecular target: human Androgen Receptor (AR), AR (gene 367) (UniProt P10275); test: ATG_hAR_XSP2: Attagene TRANS-FACTORIAL Multi-Species (XSP2) HepG2 Assay for human Androgen Receptor (AR) (AID 2283820)
Summary of the method: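 Reporter transcripts were measured by RT-PCR and capillary electrophoresis 24 h post-dosing, with gain of signal fitted against DMSO. Transiently transfected HepG2 cells expressed chimeric NR-Gal4 on GAL4-UAS reporters, with AR stimulated by 3 nM 6-alpha-fluorotestosterone and 1.5 nM norgestrel.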

[4] = tested on: frog Androgen Receptor (AR), gene 399456; test: ATG_frAR_XSP2: Attagene TRANS-FACTORIAL Multi-Species (XSP2) HepG2 Assay for frog Androgen Receptor (AR) (AID 2283824);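 also: reporter mRNA from GAL4-UAS units driven by Xenopus AR-Gal4 chimera; actives raise reporter signal above DMSO so AC50 reflects agonist-like induction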
Summary of the method: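 Reporter transcript induction, read by RT-PCR with fluorescent capillary electrophoresis, in human liver HepG2 cells carrying an exogenous Xenopus AR-Gal4 fusion and GAL4-driven reporters; chemical exposure 24 hours, activity scored upward against DMSO controls.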

[5] = ATG_M_32_XSP2: Attagene TRANS-FACTORIAL Multi-Species (XSP2) HepG2 Assay for M19 Transcription Factor (Internal Marker) (AID 2283826)
Summary of the method: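 Read-out: reporter mRNA quantified by RT-PCR, FAM labeling, HpaI digestion and capillary electrophoresis, 24 h after dosing transfected HepG2 cells. Medium carried 3 nM 6-alpha-fluorotestosterone plus 1.5 nM norgestrel; gain of signal fitted against DMSO.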

[6] = molecular target: zebrafish Thyroid Hormone Receptor alpha (TRa), thraa (gene 30670) (UniProt Q98867); test: ATG_zfTRa_XSP2: Attagene TRANS-FACTORIAL Multi-Species (XSP1) HepG2 Assay for zebrafish Thyroid Hormone Receptor alpha (TRa) (AID 2283832);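 also: actives raise zebrafish TRa-Gal4 reporter transcript above DMSO baseline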
Summary of the method: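 Multiplexed TRANS reporter format in HepG2; the medium also contained 3 nM 6-alpha-fluorotestosterone and 1.5 nM norgestrel. Reporter mRNA after 24 h read by RT-PCR and capillary electrophoresis, scored as induction over DMSO.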

[7] = tested on: zebrafish Peroxisome Proliferator-activated Receptor gamma (PPARg), gene 557037; test: ATG_zfPPARg_XSP2: Attagene TRANS-FACTORIAL Multi-Species (XSP2) HepG2 Assay for zebrafish Peroxisome Proliferator-activated Receptor gamma (PPARg) (AID 2283833);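 also: reporter mRNA from a zebrafish PPARg GAL4 chimera measured by RT-PCR and capillary electrophoresis; actives increase reporter signal over DMSO so AC50 reflects activation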
Summary of the method: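 After 24 h chemical exposure, RNA from transiently transfected HepG2 (chimeric NR-Gal4 TRANS reporters) was reverse-transcribed, PCR-amplified, 6-FAM-labelled, HpaI-cut and sized by capillary electrophoresis. Induction was scored in the positive direction relative to DMSO.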

[8] = molecular target: zebrafish Estrogen Receptor (ER1), esr1 (gene 259252) (UniProt P57717); test: ATG_zfER1_XSP2: Attagene TRANS-FACTORIAL Multi-Species (XSP2) HepG2 Assay for zebrafish Estrogen Receptor (ER1) (AID 2283816)
Summary of the method: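 After 24 h compound exposure, RNA from transfected HepG2 cells was reverse-transcribed and reporter transcripts resolved by capillary electrophoresis. The TRANS format reads exogenous zebrafish ER1-Gal4 chimera activity on GAL4-UAS elements; gain of signal against DMSO.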

[9] = molecular target: chicken Estrogen Receptor (ERa), ESR1 (gene 396099) (UniProt P06212); test: ATG_chERa_XSP2: Attagene TRANS-FACTORIAL Multi-Species (XSP2) HepG2 Assay for chicken Estrogen Receptor (ERa) (AID 2283817);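 also: actives raise reporter signal above DMSO so AC50 reflects ER activation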
Summary of the method: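 Readout: fluorescent reporter-transcript fragments resolved by capillary electrophoresis after RT-PCR and HpaI cut. Chicken ERa-Gal4 fusion in transiently transfected HepG2, dosed for 24 h; activity taken as increase over DMSO baseline.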

[10] = tested on: zebrafish Estrogen Receptor (ER2a), gene 317734; test: ATG_zfER2a_XSP2: Attagene TRANS-FACTORIAL Multi-Species (XSP2) HepG2 Assay for zebrafish Estrogen Receptor (ER2a) (AID 2283818);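 also: hits raise reporter mRNA so AC50 reflects activation of zebrafish ER2a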
Summary of the method: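 Multiplexed trans-reporter readout: RT-PCR then capillary electrophoresis of reporter transcripts after 24 h compound treatment. Human HepG2 carries transfected zebrafish ER2a-Gal4 chimera; 3 nM 6-alpha-fluorotestosterone plus 1.5 nM norgestrel present. Induction scored against DMSO.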

[11] = tested on: frog Estrogen Receptor (ER2), gene 100174814; test: ATG_frER2_XSP2: Attagene TRANS-FACTORIAL Multi-Species (XSP2) HepG2 Assay for frog Estrogen Receptor (ER2) (AID 2283828)
Summary of the method: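 Cells were transfected with reporter constructs under GAL4-UAS control, dosed with chemicals for 24 h, then lysed for RNA; the frog ER2-driven reporter mRNA was quantified by capillary electrophoresis of labeled PCR fragments, with activity fitted upward from DMSO.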

[12] = tested on: turtle Thyroid Hormone Receptor, alpha (TRa), gene 101949057; test: ATG_trTRa_XSP2: Attagene TRANS-FACTORIAL Multi-Species (XSP1) HepG2 Assay for turtle Thyroid Hormone Receptor, alpha (TRa) (AID 2283834);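 also: hits raise reporter mRNA over the DMSO baseline so AC50 marks activators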
Summary of the method: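 Turtle TRa-Gal4 chimera activity in transfected human HepG2 cells: reporter transcripts quantified by RT-PCR, 6-FAM labelling and capillary electrophoresis 24 h post-dosing; positive direction versus DMSO, medium containing 3 nM 6-alpha-fluorotestosterone and 1.5 nM norgestrel.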

[13] = molecular target: zebrafish Thyroid Hormone Receptor beta (TRb), thrb (gene 30607) (UniProt Q9PVE4); test: ATG_zfTRb_XSP2: Attagene TRANS-FACTORIAL Multi-Species (XSP1) HepG2 Assay for zebrafish Thyroid Hormone Receptor beta (TRb) (AID 2283836);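 also: potency for induction of reporter signal above DMSO so agonist direction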
Summary of the method: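 Multiplexed trans-activation in HepG2 cells, 24 h treatment, with reporter mRNA read by RT-PCR and capillary electrophoresis. Gain-of-signal against DMSO.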

[14] = tested on: frog Estrogen Receptor (ER), gene 398734; test: ATG_frER1_XSP2: Attagene TRANS-FACTORIAL Multi-Species (XSP2) HepG2 Assay for frog Estrogen Receptor (ER) (AID 2283821);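 also: hits raise reporter mRNA above DMSO baseline so potency means agonist or activator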
Summary of the method: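 Reporter mRNA induction, detected as fluorescence after RT-PCR and capillary electrophoresis, is the endpoint; activity is fitted upward against DMSO. Cells are human liver HepG2 carrying transfected NR-Gal4 chimeras with GAL4-UAS-driven reporters, harvested 24 h post-dosing.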

Measured: AC50

Oc1ccc2c(c1)-c1ccccc1C2
inactive: [5]
inconclusive: [1] 100 µM | [2] 27.4 µM and 56 µM | [3] 2.29 µM and 2.85 µM | [4] 25.8 µM and 12.2 µM | [6] 100 µM | [7] 100 µM

CCCCCCCCCCCCN
inactive: [1] | [8] | [10] | [2] | [4] | [7]
inconclusive: [8] 30.6 µM | [9] 30.6 µM | [2] 0.00823 µM | [4] 0.00823 µM | [11] 50.4 µM | [6] 30 µM and 7.54 µM | [12] 30 µM | [13] 30 µM
active: [10] 46.7 µM

CCN(Cc1c(F)cccc1Cl)c1c([N+](=O)[O-])cc(C(F)(F)F)cc1[N+](=O)[O-]
inactive: [2] | [14] | [5] | [7] | [12]
inconclusive: [1] 23.4 µM | [10] 89.1 nM and 26.8 µM | [2] 100 µM | [4] 100 µM | [6] 100 µM | [12] 100 µM | [13] 100 µM

C=CCc1cc(S(=O)(=O)c2ccc(O)c(CC=C)c2)ccc1O
inactive: [5] | [7]
active: [2] 8.4 µM
inconclusive: [8] 0.145 µM | [3] 57.9 µM | [4] 33.4 µM | [6] 33.4 µM | [13] 0.0582 µM
